In doi:10.1101/2020.04.09.033621:
Residue numbers refer to the chain shown, from its start. Results are given in words; binding and its absence hold for the method and conditions named. Binding seen in cells or lysates may run through a third protein. Some entries that bind do so weakly or less than the wild type. For some assays here: Sequences can lack the tags named with a protein.

The chains behind the UniProt entries cited, without tags or fusion partners.
UniProt Q92831: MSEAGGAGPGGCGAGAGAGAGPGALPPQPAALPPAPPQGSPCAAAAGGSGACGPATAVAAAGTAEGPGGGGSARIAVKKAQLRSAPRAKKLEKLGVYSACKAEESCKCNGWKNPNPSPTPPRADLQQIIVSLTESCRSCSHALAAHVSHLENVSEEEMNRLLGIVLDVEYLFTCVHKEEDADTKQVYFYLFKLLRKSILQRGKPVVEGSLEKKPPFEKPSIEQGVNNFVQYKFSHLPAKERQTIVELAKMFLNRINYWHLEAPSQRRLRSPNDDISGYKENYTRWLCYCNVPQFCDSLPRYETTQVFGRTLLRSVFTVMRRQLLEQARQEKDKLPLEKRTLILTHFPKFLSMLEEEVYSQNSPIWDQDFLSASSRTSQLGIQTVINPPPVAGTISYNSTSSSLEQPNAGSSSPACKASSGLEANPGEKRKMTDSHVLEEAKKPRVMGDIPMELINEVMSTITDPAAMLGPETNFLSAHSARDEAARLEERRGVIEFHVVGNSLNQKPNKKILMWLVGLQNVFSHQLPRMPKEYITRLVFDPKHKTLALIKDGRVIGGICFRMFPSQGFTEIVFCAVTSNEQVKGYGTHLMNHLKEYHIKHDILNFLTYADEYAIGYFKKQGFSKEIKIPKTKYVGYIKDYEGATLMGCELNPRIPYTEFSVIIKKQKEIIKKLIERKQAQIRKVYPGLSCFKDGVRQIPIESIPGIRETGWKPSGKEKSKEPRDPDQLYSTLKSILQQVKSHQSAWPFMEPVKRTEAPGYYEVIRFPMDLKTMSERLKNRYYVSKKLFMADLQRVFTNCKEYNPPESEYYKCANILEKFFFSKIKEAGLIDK
UniProt Q9Y6Q9: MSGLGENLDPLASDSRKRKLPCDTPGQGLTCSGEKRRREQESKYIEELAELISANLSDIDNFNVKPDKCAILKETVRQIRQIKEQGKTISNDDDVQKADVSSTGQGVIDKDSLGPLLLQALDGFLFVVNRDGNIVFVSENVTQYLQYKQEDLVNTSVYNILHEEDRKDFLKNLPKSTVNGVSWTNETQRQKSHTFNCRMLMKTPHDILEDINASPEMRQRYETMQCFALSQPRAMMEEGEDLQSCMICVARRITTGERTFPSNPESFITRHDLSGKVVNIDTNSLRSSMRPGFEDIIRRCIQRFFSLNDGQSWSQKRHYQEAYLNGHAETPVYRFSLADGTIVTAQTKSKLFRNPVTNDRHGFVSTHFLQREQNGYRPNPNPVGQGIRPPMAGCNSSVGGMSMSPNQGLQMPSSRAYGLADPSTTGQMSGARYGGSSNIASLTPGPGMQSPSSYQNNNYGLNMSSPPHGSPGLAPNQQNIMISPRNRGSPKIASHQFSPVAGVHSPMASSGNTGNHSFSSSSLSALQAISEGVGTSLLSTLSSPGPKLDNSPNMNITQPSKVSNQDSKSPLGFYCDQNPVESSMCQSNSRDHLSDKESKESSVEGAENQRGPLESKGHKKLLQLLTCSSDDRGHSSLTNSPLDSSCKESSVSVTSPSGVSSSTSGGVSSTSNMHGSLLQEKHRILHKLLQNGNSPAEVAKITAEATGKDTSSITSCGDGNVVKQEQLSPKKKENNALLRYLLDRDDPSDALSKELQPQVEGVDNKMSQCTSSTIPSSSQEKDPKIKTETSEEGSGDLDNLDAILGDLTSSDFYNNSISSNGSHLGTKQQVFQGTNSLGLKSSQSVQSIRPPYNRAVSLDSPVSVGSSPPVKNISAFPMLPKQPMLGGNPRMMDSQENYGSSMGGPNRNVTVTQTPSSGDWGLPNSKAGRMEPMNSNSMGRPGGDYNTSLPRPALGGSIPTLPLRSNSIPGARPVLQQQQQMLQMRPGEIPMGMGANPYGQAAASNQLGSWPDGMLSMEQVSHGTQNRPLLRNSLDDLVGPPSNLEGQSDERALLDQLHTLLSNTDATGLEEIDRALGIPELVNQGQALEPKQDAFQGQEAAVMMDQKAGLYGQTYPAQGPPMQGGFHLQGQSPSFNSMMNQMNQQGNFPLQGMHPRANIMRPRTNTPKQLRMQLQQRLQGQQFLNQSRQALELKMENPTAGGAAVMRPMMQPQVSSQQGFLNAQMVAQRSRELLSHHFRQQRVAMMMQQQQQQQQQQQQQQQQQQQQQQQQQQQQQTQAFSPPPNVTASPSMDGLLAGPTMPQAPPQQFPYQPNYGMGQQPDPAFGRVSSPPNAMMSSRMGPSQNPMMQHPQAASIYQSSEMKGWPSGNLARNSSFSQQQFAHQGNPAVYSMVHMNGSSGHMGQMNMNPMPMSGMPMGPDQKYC
UniProt Q9UM11: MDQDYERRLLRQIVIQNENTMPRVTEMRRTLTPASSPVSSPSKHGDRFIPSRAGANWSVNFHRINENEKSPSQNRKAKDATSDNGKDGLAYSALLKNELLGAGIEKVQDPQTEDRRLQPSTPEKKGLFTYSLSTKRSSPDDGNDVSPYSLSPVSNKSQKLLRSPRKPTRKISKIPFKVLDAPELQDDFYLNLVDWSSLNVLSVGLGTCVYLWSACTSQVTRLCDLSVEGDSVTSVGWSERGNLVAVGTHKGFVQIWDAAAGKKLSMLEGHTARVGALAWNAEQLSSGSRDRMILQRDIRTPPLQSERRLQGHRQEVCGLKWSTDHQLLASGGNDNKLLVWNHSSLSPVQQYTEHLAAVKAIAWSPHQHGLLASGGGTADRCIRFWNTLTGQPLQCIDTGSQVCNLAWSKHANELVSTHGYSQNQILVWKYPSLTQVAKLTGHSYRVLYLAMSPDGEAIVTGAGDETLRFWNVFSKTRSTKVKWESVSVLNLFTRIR

Tests used:
Test in all cases: co-IP
FLAG-PCAF (human) = FLAG-PCAF (human) (UniProt Q92831)
Myc-UHRF1^WT (human) = target: T1, Myc-UHRF1^WT (human) (UniProt Q96T88)
T1 sequence: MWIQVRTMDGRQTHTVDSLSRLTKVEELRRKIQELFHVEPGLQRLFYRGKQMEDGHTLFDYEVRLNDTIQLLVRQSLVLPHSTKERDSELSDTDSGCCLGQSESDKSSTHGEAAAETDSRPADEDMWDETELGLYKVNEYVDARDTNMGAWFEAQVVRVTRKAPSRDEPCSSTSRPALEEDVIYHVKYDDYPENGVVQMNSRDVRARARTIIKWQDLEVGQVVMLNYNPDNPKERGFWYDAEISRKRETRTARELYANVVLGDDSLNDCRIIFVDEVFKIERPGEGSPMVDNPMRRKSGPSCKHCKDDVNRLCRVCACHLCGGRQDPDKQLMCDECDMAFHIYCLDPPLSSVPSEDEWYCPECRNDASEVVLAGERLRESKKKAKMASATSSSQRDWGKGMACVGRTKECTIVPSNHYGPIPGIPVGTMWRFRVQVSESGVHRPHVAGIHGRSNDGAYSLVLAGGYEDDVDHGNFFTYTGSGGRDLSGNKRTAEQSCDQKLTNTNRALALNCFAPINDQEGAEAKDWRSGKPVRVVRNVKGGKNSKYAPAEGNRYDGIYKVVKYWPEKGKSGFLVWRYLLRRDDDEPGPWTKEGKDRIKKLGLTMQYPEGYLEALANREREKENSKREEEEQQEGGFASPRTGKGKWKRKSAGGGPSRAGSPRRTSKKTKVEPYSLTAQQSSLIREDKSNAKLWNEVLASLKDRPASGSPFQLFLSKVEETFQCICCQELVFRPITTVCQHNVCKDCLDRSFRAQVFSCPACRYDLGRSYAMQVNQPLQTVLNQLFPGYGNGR

FLAG-NCOA3 (human) = FLAG-NCOA3 (human) (UniProt Q9Y6Q9)
FLAG-TTF2 (human) = target: T2, FLAG-TTF2 (human) (UniProt Q9UNY4)
T2 sequence: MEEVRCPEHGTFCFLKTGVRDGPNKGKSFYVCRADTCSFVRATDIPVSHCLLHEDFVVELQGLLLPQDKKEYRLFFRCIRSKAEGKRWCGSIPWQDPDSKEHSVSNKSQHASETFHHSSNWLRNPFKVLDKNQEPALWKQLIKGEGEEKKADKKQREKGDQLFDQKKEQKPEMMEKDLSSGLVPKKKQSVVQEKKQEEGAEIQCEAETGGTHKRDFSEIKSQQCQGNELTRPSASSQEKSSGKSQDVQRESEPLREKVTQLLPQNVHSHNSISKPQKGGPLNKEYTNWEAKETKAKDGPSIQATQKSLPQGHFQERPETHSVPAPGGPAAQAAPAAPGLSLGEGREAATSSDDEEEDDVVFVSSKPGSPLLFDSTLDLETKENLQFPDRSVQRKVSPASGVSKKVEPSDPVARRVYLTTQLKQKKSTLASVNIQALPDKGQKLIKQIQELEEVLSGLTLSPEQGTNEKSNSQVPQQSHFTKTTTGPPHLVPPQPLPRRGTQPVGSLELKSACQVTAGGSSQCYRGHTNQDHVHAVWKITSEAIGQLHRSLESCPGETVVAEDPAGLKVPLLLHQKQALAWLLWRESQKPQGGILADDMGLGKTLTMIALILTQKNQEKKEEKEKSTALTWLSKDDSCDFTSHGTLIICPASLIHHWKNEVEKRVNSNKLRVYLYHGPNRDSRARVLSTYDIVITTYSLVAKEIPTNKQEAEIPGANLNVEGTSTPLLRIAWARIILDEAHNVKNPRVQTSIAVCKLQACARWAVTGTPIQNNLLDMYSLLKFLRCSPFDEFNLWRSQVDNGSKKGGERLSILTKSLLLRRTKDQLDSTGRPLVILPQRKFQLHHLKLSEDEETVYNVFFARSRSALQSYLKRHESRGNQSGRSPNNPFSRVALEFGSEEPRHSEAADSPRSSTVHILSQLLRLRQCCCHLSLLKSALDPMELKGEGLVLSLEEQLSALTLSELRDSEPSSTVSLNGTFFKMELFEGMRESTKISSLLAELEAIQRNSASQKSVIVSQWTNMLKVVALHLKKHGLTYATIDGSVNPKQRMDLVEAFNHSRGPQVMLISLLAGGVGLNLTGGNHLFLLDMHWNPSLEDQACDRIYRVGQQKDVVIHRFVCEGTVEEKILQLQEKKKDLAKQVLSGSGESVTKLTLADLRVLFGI

[1] = target: T3, Myc-UHRF1^KEN:AAA (human) (UniProt Q96T88)
T3 sequence: T1 sequence with K622A, E623A, N624A

- binding (FLAG-PCAF (human)): binds
- binding (Myc-UHRF1^WT (human)): binds
- binding (FLAG-NCOA3 (human)): binds
- binding (FLAG-TTF2 (human)): binds
- binding [1]: binds
Substance: HA-Cdh1 (from UniProt Q9UM11 1-496)
